Results published in article PMC12297596.
No constants are given. Whether binding was seen depends on the method and setting. In cells and extracts the contact can be indirect. Some entries that bind do so weakly or less than the wild type.

Protein sequences, listed by entry. Tags and fused reporters are not part of them.
UniProt Q9UPU5: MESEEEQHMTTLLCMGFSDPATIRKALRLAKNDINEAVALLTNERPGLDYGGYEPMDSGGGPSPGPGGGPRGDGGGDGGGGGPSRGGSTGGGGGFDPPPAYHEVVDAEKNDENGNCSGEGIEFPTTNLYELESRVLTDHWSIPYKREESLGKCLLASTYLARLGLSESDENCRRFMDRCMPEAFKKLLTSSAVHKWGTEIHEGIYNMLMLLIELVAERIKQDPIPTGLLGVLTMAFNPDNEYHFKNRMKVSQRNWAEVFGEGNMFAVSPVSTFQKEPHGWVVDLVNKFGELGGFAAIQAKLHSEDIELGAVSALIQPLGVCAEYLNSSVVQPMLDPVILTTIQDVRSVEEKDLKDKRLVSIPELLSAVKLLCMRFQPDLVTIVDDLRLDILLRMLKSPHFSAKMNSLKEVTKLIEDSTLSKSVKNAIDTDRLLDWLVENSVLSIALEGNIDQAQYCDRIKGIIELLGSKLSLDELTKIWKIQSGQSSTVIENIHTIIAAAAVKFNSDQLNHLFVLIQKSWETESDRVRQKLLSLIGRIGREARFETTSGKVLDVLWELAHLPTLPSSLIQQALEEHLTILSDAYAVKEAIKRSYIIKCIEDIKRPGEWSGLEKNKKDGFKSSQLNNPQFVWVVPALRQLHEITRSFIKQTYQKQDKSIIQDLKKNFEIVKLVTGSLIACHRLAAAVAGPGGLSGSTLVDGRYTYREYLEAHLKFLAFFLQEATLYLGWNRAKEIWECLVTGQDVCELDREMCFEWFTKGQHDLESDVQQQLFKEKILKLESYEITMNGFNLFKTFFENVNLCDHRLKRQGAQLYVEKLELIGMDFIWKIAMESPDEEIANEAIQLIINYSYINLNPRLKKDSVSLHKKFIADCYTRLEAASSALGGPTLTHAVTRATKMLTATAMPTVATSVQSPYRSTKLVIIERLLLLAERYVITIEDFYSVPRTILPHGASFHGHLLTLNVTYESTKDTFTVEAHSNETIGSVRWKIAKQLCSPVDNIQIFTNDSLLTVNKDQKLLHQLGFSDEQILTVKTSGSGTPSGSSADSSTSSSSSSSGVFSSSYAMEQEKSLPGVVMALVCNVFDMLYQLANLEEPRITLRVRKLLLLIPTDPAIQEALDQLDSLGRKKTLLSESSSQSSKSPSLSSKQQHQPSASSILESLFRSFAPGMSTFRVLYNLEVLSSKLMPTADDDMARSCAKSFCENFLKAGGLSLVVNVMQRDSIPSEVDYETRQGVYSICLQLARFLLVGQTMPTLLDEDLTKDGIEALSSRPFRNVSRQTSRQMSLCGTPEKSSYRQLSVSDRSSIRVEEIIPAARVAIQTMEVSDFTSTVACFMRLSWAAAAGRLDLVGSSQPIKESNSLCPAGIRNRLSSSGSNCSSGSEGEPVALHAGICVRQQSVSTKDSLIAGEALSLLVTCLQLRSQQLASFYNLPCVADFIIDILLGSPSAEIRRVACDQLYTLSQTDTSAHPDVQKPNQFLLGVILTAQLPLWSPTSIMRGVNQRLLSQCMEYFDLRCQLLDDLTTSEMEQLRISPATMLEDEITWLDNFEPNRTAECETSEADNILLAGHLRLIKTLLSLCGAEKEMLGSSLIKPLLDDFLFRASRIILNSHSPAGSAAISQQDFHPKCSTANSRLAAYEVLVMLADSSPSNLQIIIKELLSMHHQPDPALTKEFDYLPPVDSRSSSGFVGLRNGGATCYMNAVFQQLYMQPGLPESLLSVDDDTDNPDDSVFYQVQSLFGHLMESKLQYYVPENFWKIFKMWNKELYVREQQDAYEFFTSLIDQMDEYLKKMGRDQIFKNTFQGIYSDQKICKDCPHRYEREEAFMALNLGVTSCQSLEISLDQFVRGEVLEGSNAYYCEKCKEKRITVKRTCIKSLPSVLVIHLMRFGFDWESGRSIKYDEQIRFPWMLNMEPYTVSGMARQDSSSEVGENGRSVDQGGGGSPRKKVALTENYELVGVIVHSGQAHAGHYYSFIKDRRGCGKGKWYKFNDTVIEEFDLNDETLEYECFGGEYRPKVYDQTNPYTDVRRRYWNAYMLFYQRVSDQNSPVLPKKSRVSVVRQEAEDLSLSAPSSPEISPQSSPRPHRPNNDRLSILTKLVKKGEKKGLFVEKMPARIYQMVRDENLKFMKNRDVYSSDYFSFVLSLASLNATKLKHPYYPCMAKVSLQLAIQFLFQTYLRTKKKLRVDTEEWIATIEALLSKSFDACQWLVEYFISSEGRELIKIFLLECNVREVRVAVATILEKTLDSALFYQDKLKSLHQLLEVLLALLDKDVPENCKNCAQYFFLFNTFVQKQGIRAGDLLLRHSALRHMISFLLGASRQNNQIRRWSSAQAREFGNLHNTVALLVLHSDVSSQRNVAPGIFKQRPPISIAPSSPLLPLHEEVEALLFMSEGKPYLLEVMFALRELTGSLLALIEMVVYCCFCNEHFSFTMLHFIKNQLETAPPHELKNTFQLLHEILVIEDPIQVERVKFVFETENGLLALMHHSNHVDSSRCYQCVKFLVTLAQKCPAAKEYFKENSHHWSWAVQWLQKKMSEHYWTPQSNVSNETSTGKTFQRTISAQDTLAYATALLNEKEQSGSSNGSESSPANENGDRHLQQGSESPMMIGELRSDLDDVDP
UniProt Q02127: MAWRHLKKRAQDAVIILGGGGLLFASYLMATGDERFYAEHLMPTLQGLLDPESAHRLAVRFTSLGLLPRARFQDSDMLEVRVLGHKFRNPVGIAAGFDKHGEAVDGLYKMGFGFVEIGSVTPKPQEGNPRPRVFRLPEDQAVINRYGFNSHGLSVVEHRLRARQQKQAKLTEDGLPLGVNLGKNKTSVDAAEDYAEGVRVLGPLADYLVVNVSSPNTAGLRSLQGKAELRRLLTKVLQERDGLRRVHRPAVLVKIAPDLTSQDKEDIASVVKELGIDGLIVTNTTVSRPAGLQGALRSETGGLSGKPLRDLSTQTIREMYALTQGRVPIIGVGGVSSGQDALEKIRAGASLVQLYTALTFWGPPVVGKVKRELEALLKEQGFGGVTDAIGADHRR

Key:
[1] = molecular target: ubiquitin-specific peptidase 24 (USP24) (human (endogenous in MDA-MB-231 and MDA-MB-468)) (UniProt Q9UPU5); experiment: co-IP; endogenous proteins in lysates of MDA-MB-231 and MDA-MB-468 cells; lysates pre-cleared with Dynabeads, incubated with unrelated IgG or specific antibodies (USP24 or DHODH, 5 μg/ml) and Dynabeads overnight at 4 °C, washed with PBS, Western blot
[2] = molecular target: dihydroorotate dehydrogenase (DHODH) (human (endogenous in MDA-MB-231 and MDA-MB-468)) (UniProt Q02127); experiment: as above

binding [1]	binding [2]	Substance
binds	–	dihydroorotate dehydrogenase (DHODH) (from UniProt Q02127 1-395) (enzyme)
–	binds	ubiquitin-specific peptidase 24 (USP24) (from UniProt Q9UPU5 1-2620) (enzyme)
